Changes are numbered by the printed parent chain. In names and notes the source's numbering stands. No constants are given. Whether binding was seen depends on the method and setting. Some binding calls cover weakened binding; strength is not graded here.
B1: rat10A5 (antibody, V domains shown)
VH: QVSLKESGPGILQPSHTLSLTCSFSGFSLTTYGMGVSWIRQPSEKGLEWLASIWWNGNTYYNPSLRSRLTVSKDTSNDQAFLNVTSVDTTDTATYYCAHTGGAVITWFAYWGQGTLVTVSS
VL: NIVMTQSPKSMSISIGDRVTMNCKASQSVGKNIAWYQQKTGQSPQLLIYYASNRYTGVPDRFTGGGSGTDFTLTINSVQAEDAAFFYCQHIYNSPYPFGTGTKLEIK
B2: rat15C8 (antibody, V domains shown)
VH: EVQLQQSGPELQRPGASVKLSCKASGYTFTEHSIYWLKQRPKQSLEIIGRIDPKNGRTYFVDKFKNRATLTTNTSSNTAYMQLSSLTSEDTAIYFCARIDGFYFDFWGQGVMVTASS
VL: NIHLTQSPSLLSASVGDRVTLSCKGSQNVNKYLVWYQQKLGEAPKLLIYSTDNLQSGIPSRFSGSGSGTDYTLTISSLQPEDAATYFCYQYNNGFTFGSGTKLEIK
B3: rat6B2 (antibody, V domains shown)
VH: B1 VH with T30S, R66K, T75A
VL: B1 VL with I15V, T40P, Q45K, S77T
B4: rat7E7 (antibody, V domains shown)
VH: B2 VH with S25T, H32Y, L37V, F60Y, T72A, N73D, I93T, A97T, D100Y
VL: B2 VL with S50N
B5: 4.1A4.C96S.Q1E (antibody, V domains shown)
VH: EVQLVQSGSELKKPGASVKVSCKASGYTLTNYPMNWVRQAPGRGLEWMGWINTNTGSPAYAQDFTERFVFSLDTSVTTAYLQISSLKAEDTAVYYCARTAITSVYHFDYWGQGTLVTVSS
VL: DIQLTQSPSFLSASVGDRVTITCRASQGISSYLAWYQQKPGKAPRVLIYGATTLQSGVPSRFSGSESGTEFTLTISSLQPEDLATYYCQKLNSHPSSFGQGTKVEIK
B6: 7.4A3 (antibody, V domains shown)
VH: QVQLVQSGSDLKKPGASVRVSCKASGYTFTSYPMNWVRQAPGHGLEWMGWINTNTGNPTYVQGFTGRFVFSLDTSVNTAYLQISSLKAEDTAVYFCARTGGHTYDSYAFDVWGQGTMVTVSS
VL: DIQLTQSPTFLSASVGDRVTITCRASQVISSSLAWYQQNPGKAPKLLIYAASTLQSGVPSRFSGSGSGTEFTLTISSLQPEDFVTYYCQHLHGYPCNFGQGTKVEIK
B7: 7.4A3.C96S.Q1E (antibody, V domains shown)
VH: B6 VH with Q1E
VL: B6 VL with C96S
B8: 7.4A3.C96Y.Q1E (antibody, V domains shown)
VH: B6 VH with Q1E
VL: B6 VL with C96Y
B9: 4.1A4 (antibody, V domains shown)
VH: B5 VH with E1Q
VL: B5 VL with S96C
B10: h6B2.L2H5 (antibody, V domains shown)
VH: EVTLKESGPALVKPTQTLTLTCTFSGFSLSTYGMGVSWIRQPPGKALEWLASIWWNGNTYYNPSLKSRLTITKDTSKNQVVLTMTNMDPVDTATYYCAHTGGAVITWFAYWGQGTLVTVSS
VL: DIQMTQSPSSLSASVGDRVTITCKASQSVGKNIAWYQQKPGKAPKLLIYYASNRYTGVPSRFSGSGSGTDFTFTISSLQPEDIATYYCQHIYNSPYPFGQGTKVEIK
B11: h10A5.L4H4 (antibody, V domains shown)
VH: B10 VH with S30T, K66R
VL: EIVMTQSPATLSVSPGERATLSCKASQSVGKNIAWYQQKPGQAPRLLIYYASNRYTGIPARFSGSGSGTEFTLTISSLQSEDFAVYYCQHIYNSPYPFGQGTKVEIK

Assays:
[1] = target: cynomolgus TIGIT on CHO cells (cynomolgus monkey); assay: FACS blocking assay: labelled PVR-Fc (blocked ligand) on CHO cells expressing cyno TIGIT
[2] = target: cynomolgus monkey (cyno) TIGIT protein (cynomolgus monkey); assay: ELISA, hybridoma supernatant
[3] = target: cynomolgus TIGIT on CHO cells (cynomolgus monkey); assay: FACS on CHO cells expressing cyno TIGIT, FITC anti-hIgG detection
[4] = target: cynomolgus monkey (cyno) TIGIT protein (cynomolgus monkey); assay: SPR
[5] = target: cynomolgus TIGIT on CHO cells (cynomolgus monkey); assay: FACS blocking assay: labelled PVR-Fc (blocked ligand; text: cyPVR, scheme of FIG. 4A prints hPVR.Fc) on CHO cells expressing cyno TIGIT

Row | Binder | binding [1] | binding [2] | binding [3] | binding [4] | binding [5]
1 | B1 | binds | binds | binds | – | –
2 | B2 | binds | binds | binds | – | –
3 | B3 | binds | binds | binds | – | –
4 | B4 | binds | binds | binds | – | –
5 | B5 | – | – | binds | binds | binds
6 | B6 | – | binds | binds | – | binds
7 | B7 | – | – | binds | binds | binds
8 | B8 | – | – | binds | – | binds
9 | B9 | – | binds | binds | – | binds
10 | B10 | – | – | – | binds | –
11 | B11 | – | – | – | binds | –

— patent publication US20220064286A1
